According to publication PMC8305168:

Biological target: T1, METTL16 methyltransferase (methyltransferase-like 16) (mouse (endogenous in MEFs)) (UniProt Q9CQG2)
T1 sequence: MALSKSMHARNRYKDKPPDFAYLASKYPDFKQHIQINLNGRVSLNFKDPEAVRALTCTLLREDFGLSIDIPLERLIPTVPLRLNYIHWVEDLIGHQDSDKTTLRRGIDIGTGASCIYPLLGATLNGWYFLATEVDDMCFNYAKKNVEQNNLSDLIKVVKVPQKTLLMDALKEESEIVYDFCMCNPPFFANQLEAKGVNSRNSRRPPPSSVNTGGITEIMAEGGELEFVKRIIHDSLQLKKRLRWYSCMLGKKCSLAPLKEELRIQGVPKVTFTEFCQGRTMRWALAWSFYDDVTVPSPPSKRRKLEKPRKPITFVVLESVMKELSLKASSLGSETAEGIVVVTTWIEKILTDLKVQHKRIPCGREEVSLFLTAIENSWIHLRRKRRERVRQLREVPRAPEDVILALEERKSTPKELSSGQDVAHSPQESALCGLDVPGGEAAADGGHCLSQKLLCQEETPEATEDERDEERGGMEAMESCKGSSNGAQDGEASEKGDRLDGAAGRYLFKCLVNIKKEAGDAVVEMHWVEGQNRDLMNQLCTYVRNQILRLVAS
Test: co-IP; 500 μg lysate (Pierce IP Lysis Buffer) of wt MEFs or LMNA dn cells, non-irradiated or UVA-irradiated, precipitated with anti-METTL16 antibody (HPA020352) or control rabbit IgG on Catch and Release v2.0 columns, overnight at 4 °C; eluate blotted for the partners

- binding: no binding
Substance: B-type lamin (mouse (endogenous in MEFs))

No constants are given. Whether binding was seen depends on the method and setting. Binding seen in cells or lysates may run through a third protein.
